From patent EP4810522A1 (WeCareLife Biotech Co., Ltd., dated 2026) come the findings set out here.

By UniProt entry, the sequences of proteins in these tests, tags left out.
UniProt P02786, whole entry: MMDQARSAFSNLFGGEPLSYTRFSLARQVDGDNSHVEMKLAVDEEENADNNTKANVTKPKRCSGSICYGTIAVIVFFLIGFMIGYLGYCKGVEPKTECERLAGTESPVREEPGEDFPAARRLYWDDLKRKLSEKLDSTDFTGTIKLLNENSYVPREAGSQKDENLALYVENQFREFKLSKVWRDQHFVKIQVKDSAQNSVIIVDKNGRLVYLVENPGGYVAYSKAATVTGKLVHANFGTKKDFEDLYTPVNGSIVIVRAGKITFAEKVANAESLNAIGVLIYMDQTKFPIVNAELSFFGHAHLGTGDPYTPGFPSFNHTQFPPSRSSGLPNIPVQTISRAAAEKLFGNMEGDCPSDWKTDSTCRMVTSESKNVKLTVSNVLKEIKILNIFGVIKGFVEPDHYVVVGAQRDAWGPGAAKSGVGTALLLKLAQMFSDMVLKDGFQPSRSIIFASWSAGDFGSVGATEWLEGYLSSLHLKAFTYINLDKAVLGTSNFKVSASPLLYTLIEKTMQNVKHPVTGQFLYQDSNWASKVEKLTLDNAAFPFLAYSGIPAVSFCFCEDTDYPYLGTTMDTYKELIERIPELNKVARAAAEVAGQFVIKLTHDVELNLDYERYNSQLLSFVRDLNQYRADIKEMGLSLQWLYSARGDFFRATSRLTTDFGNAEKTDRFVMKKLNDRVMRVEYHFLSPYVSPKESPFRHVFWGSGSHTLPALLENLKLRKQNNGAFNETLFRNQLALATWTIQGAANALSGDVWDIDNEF

The target in the experiment is T1, Transferrin receptor 1 (UniProt ID: P02786) (UniProt P02786 1-760).
T1 construct: whole, on cells; Endogenous expression, not transfected cells; also called protein Transferrin receptor 1
Briefly: confocal microscopy and flow cytometry of MCF7 cells (high Transferrin receptor 1) after 2 h with fluorescent adiposomes carrying TRTA-P33, against adiposomes without the peptide. (In general: Flow cytometry measures light scatter and fluorescence of single cells or particles in a stream.)

B1: adiposome targeting peptide TRTA-P33 (Transferrin receptor 1-targeting adiposome peptide 33) (peptide)
peptide: MGIFSRFADIVNANINALLEKTHRPPMWSPVWP
notes: Chemically synthesized; No linker; In the assay it was adsorbed non-covalently to the surface of fluorescently labeled adiposomes (TRTA adiposomes); also called PspA-H1-Trf-B
Turning to B1, the binding result was “binds”.
